At least one compound was matched to its structure with a doubt left.
Tested on: MPTP-lesioned marmoset model of Parkinson's disease
Assay: L-DOPA-induced dyskinesia score, MPTP-lesioned marmoset (Example 2)
Format: in vivo, marmosets (Callithrix jacchus)
Settings: first hour post drug administration, vs L-DOPA + vehicle
Method: This study was designed to investigate whether the compound ((2S)-2-[(4S)-4-(2,2-difluorovinyl)-2-oxopyrrolidinyl]butanamide) (named compound A) has anti-dyskinetic activity in the 1-methyl-4-phenyl-1,2,3,6-tetrahydropyridine (MPTP)—lesioned marmoset model of Parkinson's disease. The effect of the compound A on L-3,4-dihydroxyphenylalanine (L-DOPA)-induced dyskinesias and alleviation of anti parkinsonism symptoms was investigated.
The study was performed on nine adult marmosets (Callithrix jacchus) bred in a closed colony. The marmosets were rendered parkinsonian by subcutaneous injection of 2 mg/kg MPTP for 5 consecutive days. The marmosets were allowed to recover for 18 weeks until their parkinsonism became stable. The degree of activity and disability before and after MPTP treatment was assessed using a combination of scales that measure locomotor activity, mobility, bradykinesia and posture. […]
Behaviour was assessed for 6 hours post drug administration. Behavioural test 1, activity, was assessed every 5 minutes for 6 hours post drug administration. Behavioural tests 2 and 3, parkinsonian disability and dyskinesia, respectively, were assessed for 10 minutes every 30 minutes over the course of 6 hours, by post hoc analysis of video-recordings by an observer blinded to the treatment. […]

## CC[C@@H](C(N)=O)N1C[C@H](C=C(F)F)CC1=O [compound A, (2S)-2-[(4S)-4-(2,2-difluorovinyl)-2-oxopyrrolidinyl]butanamide]
Compound A 1 mg/kg + L-DOPA 13.9+/−0.8 mg/kg oral
  Dyskinesia: p>0.05
Compound A 3 mg/kg + L-DOPA 13.9+/−0.8 mg/kg oral
  Dyskinesia: p>0.05

— patent US20040242671A1, “Use of 2-oxo-1-pyrrolidine derivatives for the preparation of a drug” (priority 2001, published 2004)
